PubChem BioAssay AID1259254 | NCATS – 2017

- Purpose: 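Genome-wide screen for genes that prevent DNA re-replication in cancer cells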 (primary screen)
- System: human HCT116 colorectal cancer cells
- Reagent: single siRNA against human genes
- Duration: 3 days
- Measured: 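Imaged Hoechst DNA stain sorts each cell into a cycle phase by DNA amount; per plate, G2 fraction set to 0% for non-targeting and 100% for GMNN siRNA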
- Reading the numbers: G2 robust z-score and G2 cells, % of GMNN control: higher = more G2 cells, more excess DNA replication
- Rule for the call: 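Active siRNAs have a G2 robust z of 5 or more median absolute deviations over the median, which in these data means about 38% or higher of GMNN control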
This is a random part of about 59,000 reagents tested. About 1,550 of them (2.6%) count as active. 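G2 share is only a proxy for re-replication; each gene was hit by three separate siRNAs, and active genes were retested.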 A number with no mark means an inactive call. Reagents against one gene are numbered here. Further read-outs or replicates are left out here. Not given: the amount of reagent.

G2 robust z-score	G2 cells, % of GMNN control	target gene	reagent
-0.818	-2.78	OR5AC2 (GeneID 81050)	1
-0.417	0.0333	OR5AC2 (GeneID 81050)	2
-0.267	1.09	OR5AC2 (GeneID 81050)	3
-0.0407	2.68	DIS3 (GeneID 22894)	1
-1.13	-4.97	DIS3 (GeneID 22894)	2
-0.599	-1.24	DIS3 (GeneID 22894)	3
-0.137	2	HDGFL1 (GeneID 154150)	1
-0.621	-1.41	HDGFL1 (GeneID 154150)	2
-1.1	-4.79	HDGFL1 (GeneID 154150)	3
-0.341	0.567	HAPLN4 (GeneID 404037)	1
-0.226	1.37	HAPLN4 (GeneID 404037)	2
1.34	12.4	HAPLN4 (GeneID 404037)	3
-0.498	-0.535	LAMA3 (GeneID 3909)	1
1.3	12.1	LAMA3 (GeneID 3909)	2
-0.477	-0.389	LAMA3 (GeneID 3909)	3
0.516	6.6	ETV7 (GeneID 51513)	1
0.345	5.4	ETV7 (GeneID 51513)	2
-0.622	-1.41	ETV7 (GeneID 51513)	3
-1.74	-9.31	MAPK1 (GeneID 5594)	1
0.188	4.29	MAPK1 (GeneID 5594)	2
-0.585	-1.15	MAPK1 (GeneID 5594)	3
0.0808	3.54	GOLGA3 (GeneID 2802)	1
0.00753	3.02	GOLGA3 (GeneID 2802)	2
1.92	16.5	GOLGA3 (GeneID 2802)	3
-0.898	-3.35	KIF3C (GeneID 3797)	1
-0.746	-2.28	KIF3C (GeneID 3797)	2
-0.165	1.8	KIF3C (GeneID 3797)	3
2.27	18.9	ATP7A (GeneID 538)	1
-1.42	-7.03	ATP7A (GeneID 538)	2
-1.01	-4.16	ATP7A (GeneID 538)	3
3.16	25.2	RBBP8 (GeneID 5932)	1
0.572	6.99	RBBP8 (GeneID 5932)	2
2.76	22.4	RBBP8 (GeneID 5932)	3
-1	-4.1	FAM135B (GeneID 51059)	1
2.63	21.5	FAM135B (GeneID 51059)	2
-0.35	0.505	FAM135B (GeneID 51059)	3
0.767	8.36	CTNND1 (GeneID 1500)	1
-0.052	2.6	CTNND1 (GeneID 1500)	2
0.212	4.46	CTNND1 (GeneID 1500)	3
-1.57	-8.06	UNC13B (GeneID 10497)	1
0.149	4.02	UNC13B (GeneID 10497)	2
-0.653	-1.63	UNC13B (GeneID 10497)	3
-1.28	-6.07	LOC728073 (retired record) (GeneID 728073)	1
0.208	4.43	LOC728073 (retired record) (GeneID 728073)	2
-0.51	-0.624	LOC728073 (retired record) (GeneID 728073)	3
0.743	8.19	ZC2HC1C (GeneID 79696)	1
0.807	8.65	ZC2HC1C (GeneID 79696)	2
-0.187	1.65	ZC2HC1C (GeneID 79696)	3
-1.5	-7.57	DAB2 (GeneID 1601)	1
4.03	31.3	DAB2 (GeneID 1601)	2
-0.349	0.512	DAB2 (GeneID 1601)	3
-0.603	-1.28	CLCN5 (GeneID 1184)	1
3.98	31	CLCN5 (GeneID 1184)	2
1.73	15.2	CLCN5 (GeneID 1184)	3
-0.257	1.16	ICOS (GeneID 29851)	1
0.572	6.99	ICOS (GeneID 29851)	2
2.96	23.8	ICOS (GeneID 29851)	3
0.598	7.18	RIMBP3 (GeneID 85376)	1
-0.474	-0.367	RIMBP3 (GeneID 85376)	2
-0.0655	2.51	RIMBP3 (GeneID 85376)	3
-0.816	-2.78	CYRIA (GeneID 81553)	1
-0.448	-0.185	CYRIA (GeneID 81553)	2
-0.0891	2.34	CYRIA (GeneID 81553)	3
-0.997	-4.04	PARK7 (GeneID 11315)	1
-0.97	-3.86	PARK7 (GeneID 11315)	2
-0.459	-0.259	PARK7 (GeneID 11315)	3
0.684	7.78	CTLA4 (GeneID 1493)	1
-0.343	0.555	CTLA4 (GeneID 1493)	2
2.57	21.1	CTLA4 (GeneID 1493)	3

Records above whose gene name starts with K or k (3):
G2 robust z-score	G2 cells, % of GMNN control	target gene	reagent
-0.898	-3.35	KIF3C (GeneID 3797)	1
-0.746	-2.28	KIF3C (GeneID 3797)	2
-0.165	1.8	KIF3C (GeneID 3797)	3
